Measurements published in patent US20240279350A1.
Results are given in words; binding and its absence hold for the method and conditions named. Some binding calls cover weakened binding; strength is not graded here.

By UniProt entry, the sequences of proteins in these tests, tags left out. Where a name states a change or a piece, a line headed by the entry shows the natural chain unless it says otherwise. Chains listed by the source or under a name are the forms on record and can include a tag or linker.
cynomolgus CD40 on HEK293 cells (G7PG38, form named): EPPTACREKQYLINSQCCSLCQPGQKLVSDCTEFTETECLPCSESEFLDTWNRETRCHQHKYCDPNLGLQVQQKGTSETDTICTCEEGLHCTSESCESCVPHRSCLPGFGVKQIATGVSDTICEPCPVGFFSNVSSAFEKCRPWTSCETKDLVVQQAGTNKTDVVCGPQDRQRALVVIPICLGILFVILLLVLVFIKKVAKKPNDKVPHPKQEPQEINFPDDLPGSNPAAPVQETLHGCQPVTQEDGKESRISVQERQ

Columns and labels:
[1] = target: cynomolgus CD40 on HEK293 cells (cynomolgus) (UniProt G7PG38); test: flow cytometry on cynomolgus CD40-expressing HEK293 cells
[2] = target: cynomolgus CD40 on HEK293 cells (cynomolgus) (UniProt G7PG38); test: flow cytometry on cynomolgus CD40-expressing HEK293 cells, 1 h at 4 °C, AF488-conjugated secondary antibody (MFI)

| Binder | binding [1] | binding [2] |
| --- | --- | --- |
| mAb1 (Y32K/S77A) (antibody, human IgG2, kappa) heavy: QVQLVQSGAEVKKPGASVKVSCKASGYTFTGKYMHWVRQAPGQGLEWMGWINPDSGGTNYAQKFQGRVTMTRDTSIATAYMELNRLRSDDTAVYYCARDQPLGYCTNGVCSYFDYWGQGTLVTVSSASTKGPSVFPLAPCSRSTSESTAALGCLVKDYFPEPVTVSWNSGALTSGVHTFPAVLQSSGLYSLSSVVTVPSSNFGTQTYTCNVDHKPSNTKVDKTVERKCCVECPPCPAPPVAGPSVFLFPPKPKDTLMISRTPEVTCVVVDVSHEDPEVQFNWYVDGVEVHNAKTKPREEQFNSTFRVVSVLTVVHQDWLNGKEYKCKVSNKGLPAPIEKTISKTKGQPREPQVYTLPPSREEMTKNQVSLTCLVKGFYPSDIAVEWESNGQPENNYKTTPPMLDSDGSFFLYSKLTVDKSRWQQGNVFSCSVMHEALHNHYTQKSLSLSPGK light: DIQMTQSPSSVSASVGDRVTITCRASQGIYSWLAWYQQKPGKAPNLLIYTASTLQSGVPSRFSGSGSGTDFTLTISSLQPEDFATYYCQQANIFPLTFGGGTKVEIKRTVAAPSVFIFPPSDEQLKSGTASVVCLLNNFYPREAKVQWKVDNALQSGNSQESVTEQDSKDSTYSLSSTLTLSKADYEKHKVYACEVTHQGLSSPVTKSFNRGEC | binds | binds |
| mAb3 (Y32K) (antibody, human IgG2, kappa, V domains shown) VH: QVQLVQSGAEVKKPGASVKVSCKASGYTFTGKYMHWVRQAPGQGLEWMGWINPDSGGTNYAQKFQGRVTMTRDTSISTAYMELNRLRSDDTAVYYCARDQPLGYCTNGVCSYFDYWGQGTLVTVSS VL: DIQMTQSPSSVSASVGDRVTITCRASQGIYSWLAWYQQKPGKAPNLLIYTASTLQSGVPSRFSGSGSGTDFTLTISSLQPEDFATYYCQQANIFPLTFGGGTKVEIKR | binds | binds |
| mAb2 (Y32K/S77P) (antibody, human IgG2, kappa, V domains shown) VH: QVQLVQSGAEVKKPGASVKVSCKASGYTFTGKYMHWVRQAPGQGLEWMGWINPDSGGTNYAQKFQGRVTMTRDTSIPTAYMELNRLRSDDTAVYYCARDQPLGYCTNGVCSYFDYWGQGTLVTVSS VL: DIQMTQSPSSVSASVGDRVTITCRASQGIYSWLAWYQQKPGKAPNLLIYTASTLQSGVPSRFSGSGSGTDFTLTISSLQPEDFATYYCQQANIFPLTFGGGTKVEIKR | binds |  |
| mAb4 (Y32R) (antibody, human IgG2, kappa, V domains shown) VH: QVQLVQSGAEVKKPGASVKVSCKASGYTFTGRYMHWVRQAPGQGLEWMGWINPDSGGTNYAQKFQGRVTMTRDTSISTAYMELNRLRSDDTAVYYCARDQPLGYCTNGVCSYFDYWGQGTLVTVSS VL: DIQMTQSPSSVSASVGDRVTITCRASQGIYSWLAWYQQKPGKAPNLLIYTASTLQSGVPSRFSGSGSGTDFTLTISSLQPEDFATYYCQQANIFPLTFGGGTKVEIKR | binds |  |
